Measurements reported in article PMC4118983, “Structural Insights into Calcium-Bound S100P and the V Domain of the RAGE Complex” (PLoS ONE, 2014).
Results are given in words; binding and its absence hold for the method and conditions named.

The chains behind the UniProt entries cited, without tags or fusion partners. Residues count along the entry.
UniProt Q15109, residues 24-121: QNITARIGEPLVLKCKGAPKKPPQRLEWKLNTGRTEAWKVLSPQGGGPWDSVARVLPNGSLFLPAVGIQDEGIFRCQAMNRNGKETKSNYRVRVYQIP

Assays:
[1] = molecular target: Recombinant RAGE V domain (residues 24–121) (UniProt Q15109); experiment: SEC; RAGE V domain (His tag cleaved) on a Superdex 75 column (1.6×60 cm) equilibrated with 20 mM Tris-HCl pH 7.5, 100 mM KCl, 4 mM CaCl2; both purified
[2] = molecular target: Recombinant RAGE V domain (residues 24–121) (UniProt Q15109); experiment: ITC; S100P (2.0 mM, syringe) titrated into RAGE V domain (0.06 mM, cell); MicroCal VP-ITC; 25°C; 20 mM Tris-HCl pH 7.0, 100 mM NaCl, 4 mM CaCl2; single-site model; similar approach for the S100P mutants; both purified

Row | Molecule | binding [1] | binding [2]
1 | Recombinant RAGE V domain (residues 24–121) (from UniProt Q15109 24-121) (domain or fragment) | no binding | –
2 | S100P F44G/Y88G/F89G triple mutant (natural protein, UniProt P25815 1-95, looked up, S100P, residues 1-95, with F44G, Y88G and F89G; Section 2.2 prints 'F44G/Y89G/F89G'; every other place prints F44G/Y88G/F89G; Used with 4 mM CaCl2; also called S100P F44G/Y89G/F89G (as printed in the methods); source: E. coli BL21(DE3), pET-20b(+), purified (size exclusion chromatography, Superdex 75)) MTELETAMGMIIDVFSRYSGSEGSTQTLTKGELKVLMEKELPGGLQSGKDKDAVDKLLKDLDANGDAQVDFSEFIVFVAAITSACHKGGEKAGLK | – | no binding
